Measured values reported in patent publication US12576070B2, “Medicine for improving state of pregnancy, and use thereof” (priority 2014, dated 2026).

System: repeated implantation failure (RIF) patients with elevated Th1/Th2 cell ratios
Assay: Tacrolimus treatment of repeated implantation failure (RIF) patients during IVF/ET, prospective cohort study (Example 1)
Format: in vivo, human
Settings: 15 newborns, mean ± standard deviation
Experimental: This was a prospective cohort study of treatment for RIF patients (n=42) with elevated peripheral blood Th1 (CD4^+/IFN-γ^+)/Th2 (CD4^+/IL-4^+) cell ratios at the Sugiyama clinic between November 2011 and October 2013. Twenty-five patients were treated with tacrolimus (treatment group) and 17 received no treatment (control group).
Treatment group continuously received tacrolimus from two days before embryo transfer until the day of the pregnancy test, for a total of 16 days. The daily dose of tacrolimus (1-3 mg) was determined based on the degree of the Th1/Th2 cell ratio. […]
Study patients were assessed by transvaginal ultrasound, hysterosalpingography, and hysteroscopy before the index ART cycle. […]
Blood was drawn between cycle day (CD) 5 and 10 prior to the index ART cycle for the evaluation of a baseline value of Th1/Th2 cell ratios. […] A Th1/Th2 cell ratio equal to 10.3 or above was classified as an elevated Th1/Th2 cell ratio, which was determined by the mean plus one standard deviation of Th1/Th2 cell ratio levels.
For the evaluation of a baseline value of Th1/Th2 cell ratios, total 10 ml of venous blood was obtained. Th1 and Th2 cells were determined by detecting the intracellular interferon (IFN)-γ and IL-4 production. […]

SMILES: C=CCC1/C=C(\C)CC(C)CC(OC)C2OC(O)(C(=O)C(=O)N3CCCCC3C(=O)OC(/C(C)=C/C3CCC(O)C(OC)C3)C(C)C(O)CC1=O)C(C)CC2OC (centres unmarked) [tacrolimus, 17-Allyl-1,14-dihydroxy-12-[2-(4-hydroxy-3-methoxycyclohexyl)-1-methylvinyl]-23,2 5-dimethoxy-13,19,21,27-tetramethyl-11,28-dioxa-4-azatricyclo[22.3.1.04,9]octacos-18-ene-2,3,10,16-tetraone]
- Height (cm) (height at birth): 50.9 ± 0.9 cm
- Umbilical cord length (cm) (treatment group): 56.2 ± 12.2 cm
